Some of these results come from one statement about several compounds together.
Each compound was assayed on human oligodendrocytes (MO3-13) (assay: Protection of oligodendrocytes from cuprizone demyelination). Conditions: test article 5 μM in DMSO, cuprizone 50 μM, 48 hours, phase contrast microscopy, FIG. 1.
Assay type: cell-based

SMILES | protection of human oligodendrocytes (MO3-13) against cuprizone toxicity
Cc1cc(C(F)(F)F)cc(=S)[nH]1 [A3, 6-methyl-4-trifluoromethylpyridine-2(1H)-thione] | protection
Cc1cc(C2CCCCC2)[nH]c(=S)c1 [compound A1, 6-cyclohexyl-4-methylpyridine-2(1H)-thione] | protection
Cc1cc(CC(C)CC(C)(C)C)[nH]c(=S)c1 (stereo not drawn) [compound A2, 4-methyl-6-(2,4,4-trimethylpentyl)pyridine-2(1H)-thione] | protection
